According to publication PMC6590835, “A unified mechanism for LLPS of ALS/FTLD-causing FUS as well as its modulation by ATP and oligonucleic acids”:

Columns and labels:
[1] = target: T1, FUS U-CTD (RGG2-ZnF-RGG3, ZnF unfolded) (UniProt P35637); assay: DIC microscopy (LLPS induced then dissolved); settings: 1 mM MgCl2, no Zn, indirect read-out; 20 uM protein, 5 mM sodium phosphate pH 6.0, 1 mM MgCl2 (ZnCl2 added for full-length FUS and F-CTD), 25 C; recombinant protein; residues 371-526
T1 sequence (looked up): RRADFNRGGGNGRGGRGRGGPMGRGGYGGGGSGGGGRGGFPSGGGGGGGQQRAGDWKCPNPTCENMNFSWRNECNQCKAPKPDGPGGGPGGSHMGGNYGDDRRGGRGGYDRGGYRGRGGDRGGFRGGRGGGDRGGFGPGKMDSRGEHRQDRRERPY

FUS full-length = target: T2, FUS full-length (UniProt P35637); assay: DIC microscopy (LLPS enhanced 1:2, dissolved 1:15); settings: 1 mM MgCl2, indirect read-out; 20 uM protein, 5 mM sodium phosphate pH 6.0, 1 mM MgCl2 (ZnCl2 added for full-length FUS and F-CTD), 25 C; recombinant protein; residues 1-526
T2 sequence (looked up): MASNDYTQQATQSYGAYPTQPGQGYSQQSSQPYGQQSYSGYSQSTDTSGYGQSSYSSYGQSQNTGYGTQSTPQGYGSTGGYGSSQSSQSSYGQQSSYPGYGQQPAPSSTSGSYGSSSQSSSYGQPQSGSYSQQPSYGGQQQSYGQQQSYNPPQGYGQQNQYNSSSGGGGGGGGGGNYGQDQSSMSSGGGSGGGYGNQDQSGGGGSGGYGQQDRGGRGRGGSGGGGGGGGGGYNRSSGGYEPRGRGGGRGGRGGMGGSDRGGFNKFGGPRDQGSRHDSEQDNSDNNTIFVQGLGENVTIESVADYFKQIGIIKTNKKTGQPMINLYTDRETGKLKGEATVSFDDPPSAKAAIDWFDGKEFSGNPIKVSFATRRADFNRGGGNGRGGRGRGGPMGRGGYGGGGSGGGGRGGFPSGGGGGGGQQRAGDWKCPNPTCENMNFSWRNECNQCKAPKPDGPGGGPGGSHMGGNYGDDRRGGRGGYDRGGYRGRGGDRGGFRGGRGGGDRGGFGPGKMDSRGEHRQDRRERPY

[2] = target: T3, FUS F-CTD (RGG2-ZnF-RGG3, ZnF folded) (UniProt P35637); assay: DIC microscopy (LLPS induced 1:2, dissolved 1:10); settings: 1 mM MgCl2, Zn2+, indirect read-out; 20 uM protein, 5 mM sodium phosphate pH 6.0, 1 mM MgCl2 (ZnCl2 added for full-length FUS and F-CTD), 25 C; recombinant protein; residues 371-526
T3 sequence (looked up): T1 sequence (looked up)

FUS NTD (PLD+RGG1) = target: T4, FUS NTD (PLD+RGG1) (UniProt P35637); assay: DIC microscopy (LLPS dissolved at 1:5); settings: 1 mM MgCl2, indirect read-out; 20 uM protein, 5 mM sodium phosphate pH 6.0, 1 mM MgCl2 (ZnCl2 added for full-length FUS and F-CTD), 25 C; recombinant protein; residues 1-267
T4 sequence (looked up): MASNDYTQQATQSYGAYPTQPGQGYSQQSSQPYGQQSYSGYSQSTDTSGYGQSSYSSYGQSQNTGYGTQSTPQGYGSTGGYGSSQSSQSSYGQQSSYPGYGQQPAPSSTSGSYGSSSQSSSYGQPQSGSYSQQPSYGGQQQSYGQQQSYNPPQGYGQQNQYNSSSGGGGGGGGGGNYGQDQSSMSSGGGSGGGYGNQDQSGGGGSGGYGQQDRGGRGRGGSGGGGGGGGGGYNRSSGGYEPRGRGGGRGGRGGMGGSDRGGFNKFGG

Measured: binding result

UAGUUUGGUGAU [12-mer RNA]
binds: [1] | FUS full-length | [2] | FUS NTD (PLD+RGG1)

For at least one entry, the source does not settle the construct or the ends of the probe. At least one verdict was read from the data and is not stated in words by the source. Where a protein sequence is shown, tags need not be part of it.
